Experimental data published in the supplement of paper PMC10849652.
The list shows a part of the results.

Chains of the proteins cited; added tags and fusions are not shown. Lines headed by an entry give the natural chain unless they say otherwise; changes in a name come on top.
UniProt Q86XN7: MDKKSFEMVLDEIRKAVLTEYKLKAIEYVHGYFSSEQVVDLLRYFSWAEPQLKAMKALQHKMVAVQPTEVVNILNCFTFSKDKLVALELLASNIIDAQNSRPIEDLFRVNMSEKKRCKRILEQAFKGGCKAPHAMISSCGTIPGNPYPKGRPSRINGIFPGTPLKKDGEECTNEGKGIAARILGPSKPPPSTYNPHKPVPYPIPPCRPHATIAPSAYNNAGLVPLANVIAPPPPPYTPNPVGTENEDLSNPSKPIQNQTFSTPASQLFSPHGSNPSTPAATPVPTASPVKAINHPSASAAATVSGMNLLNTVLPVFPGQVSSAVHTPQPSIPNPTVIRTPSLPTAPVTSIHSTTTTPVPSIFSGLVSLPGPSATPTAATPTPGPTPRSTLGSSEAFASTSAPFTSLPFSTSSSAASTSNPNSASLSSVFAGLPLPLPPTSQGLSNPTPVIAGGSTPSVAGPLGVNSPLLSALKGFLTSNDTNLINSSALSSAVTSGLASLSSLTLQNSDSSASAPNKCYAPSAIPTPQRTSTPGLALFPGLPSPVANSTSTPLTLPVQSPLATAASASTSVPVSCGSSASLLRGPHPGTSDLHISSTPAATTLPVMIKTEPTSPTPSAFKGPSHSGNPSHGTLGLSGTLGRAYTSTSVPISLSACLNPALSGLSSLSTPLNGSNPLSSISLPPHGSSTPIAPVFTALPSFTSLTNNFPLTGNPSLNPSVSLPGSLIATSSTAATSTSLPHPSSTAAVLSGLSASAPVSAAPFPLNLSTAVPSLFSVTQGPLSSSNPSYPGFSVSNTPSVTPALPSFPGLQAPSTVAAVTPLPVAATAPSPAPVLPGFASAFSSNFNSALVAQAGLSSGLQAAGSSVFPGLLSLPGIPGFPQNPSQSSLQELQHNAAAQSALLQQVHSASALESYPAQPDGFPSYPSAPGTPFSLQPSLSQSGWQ
UniProt Q569H4: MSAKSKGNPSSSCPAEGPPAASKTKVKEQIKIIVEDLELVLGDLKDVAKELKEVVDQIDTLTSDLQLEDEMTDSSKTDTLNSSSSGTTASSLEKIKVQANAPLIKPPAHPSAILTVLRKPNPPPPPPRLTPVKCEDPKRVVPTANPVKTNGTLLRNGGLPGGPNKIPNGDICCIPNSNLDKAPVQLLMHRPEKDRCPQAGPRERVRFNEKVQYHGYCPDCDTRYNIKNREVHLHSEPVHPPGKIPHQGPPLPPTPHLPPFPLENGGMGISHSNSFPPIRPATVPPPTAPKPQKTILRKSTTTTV
UniProt Q2NL68: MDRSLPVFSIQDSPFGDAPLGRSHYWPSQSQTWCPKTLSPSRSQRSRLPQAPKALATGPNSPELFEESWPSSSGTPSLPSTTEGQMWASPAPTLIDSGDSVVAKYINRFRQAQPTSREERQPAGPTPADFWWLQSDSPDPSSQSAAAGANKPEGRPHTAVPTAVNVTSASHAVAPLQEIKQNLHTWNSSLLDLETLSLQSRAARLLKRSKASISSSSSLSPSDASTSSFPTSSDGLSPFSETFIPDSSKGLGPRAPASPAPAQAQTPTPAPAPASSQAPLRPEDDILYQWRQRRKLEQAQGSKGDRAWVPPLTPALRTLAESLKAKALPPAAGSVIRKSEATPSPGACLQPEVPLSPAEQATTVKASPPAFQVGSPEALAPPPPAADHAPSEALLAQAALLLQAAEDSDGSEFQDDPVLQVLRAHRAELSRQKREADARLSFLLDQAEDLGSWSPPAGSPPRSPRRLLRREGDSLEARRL
UniProt O95685: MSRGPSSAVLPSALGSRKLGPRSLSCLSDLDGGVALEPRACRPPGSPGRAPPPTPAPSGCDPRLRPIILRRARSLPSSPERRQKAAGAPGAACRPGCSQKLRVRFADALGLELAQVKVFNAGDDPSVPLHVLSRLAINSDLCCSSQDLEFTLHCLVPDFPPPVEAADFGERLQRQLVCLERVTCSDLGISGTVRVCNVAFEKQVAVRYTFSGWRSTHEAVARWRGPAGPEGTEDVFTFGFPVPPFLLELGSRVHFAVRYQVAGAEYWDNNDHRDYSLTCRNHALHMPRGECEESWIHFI
UniProt P07478, whole entry, looked up: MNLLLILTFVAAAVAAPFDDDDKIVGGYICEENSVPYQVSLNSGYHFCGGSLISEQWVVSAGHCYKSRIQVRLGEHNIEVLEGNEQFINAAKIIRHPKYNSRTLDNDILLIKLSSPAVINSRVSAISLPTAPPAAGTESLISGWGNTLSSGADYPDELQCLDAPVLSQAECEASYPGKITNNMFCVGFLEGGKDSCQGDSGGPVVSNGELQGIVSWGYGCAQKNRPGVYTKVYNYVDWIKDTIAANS
UniProt Q96LW4: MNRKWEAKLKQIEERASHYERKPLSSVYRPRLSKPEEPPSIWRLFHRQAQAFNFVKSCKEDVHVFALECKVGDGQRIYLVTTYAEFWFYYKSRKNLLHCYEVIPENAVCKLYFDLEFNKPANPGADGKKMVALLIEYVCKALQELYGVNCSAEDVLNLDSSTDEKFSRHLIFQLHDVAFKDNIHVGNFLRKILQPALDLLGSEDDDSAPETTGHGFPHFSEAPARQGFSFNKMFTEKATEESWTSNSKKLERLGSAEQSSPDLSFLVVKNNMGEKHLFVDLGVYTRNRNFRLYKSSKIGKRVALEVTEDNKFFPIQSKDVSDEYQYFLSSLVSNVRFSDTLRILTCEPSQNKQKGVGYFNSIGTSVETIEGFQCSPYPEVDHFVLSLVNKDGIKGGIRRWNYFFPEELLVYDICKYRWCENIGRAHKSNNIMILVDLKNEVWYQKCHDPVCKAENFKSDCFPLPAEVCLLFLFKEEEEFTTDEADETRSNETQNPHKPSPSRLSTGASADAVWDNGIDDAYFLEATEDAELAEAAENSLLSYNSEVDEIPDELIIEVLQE
UniProt Q9ULL5: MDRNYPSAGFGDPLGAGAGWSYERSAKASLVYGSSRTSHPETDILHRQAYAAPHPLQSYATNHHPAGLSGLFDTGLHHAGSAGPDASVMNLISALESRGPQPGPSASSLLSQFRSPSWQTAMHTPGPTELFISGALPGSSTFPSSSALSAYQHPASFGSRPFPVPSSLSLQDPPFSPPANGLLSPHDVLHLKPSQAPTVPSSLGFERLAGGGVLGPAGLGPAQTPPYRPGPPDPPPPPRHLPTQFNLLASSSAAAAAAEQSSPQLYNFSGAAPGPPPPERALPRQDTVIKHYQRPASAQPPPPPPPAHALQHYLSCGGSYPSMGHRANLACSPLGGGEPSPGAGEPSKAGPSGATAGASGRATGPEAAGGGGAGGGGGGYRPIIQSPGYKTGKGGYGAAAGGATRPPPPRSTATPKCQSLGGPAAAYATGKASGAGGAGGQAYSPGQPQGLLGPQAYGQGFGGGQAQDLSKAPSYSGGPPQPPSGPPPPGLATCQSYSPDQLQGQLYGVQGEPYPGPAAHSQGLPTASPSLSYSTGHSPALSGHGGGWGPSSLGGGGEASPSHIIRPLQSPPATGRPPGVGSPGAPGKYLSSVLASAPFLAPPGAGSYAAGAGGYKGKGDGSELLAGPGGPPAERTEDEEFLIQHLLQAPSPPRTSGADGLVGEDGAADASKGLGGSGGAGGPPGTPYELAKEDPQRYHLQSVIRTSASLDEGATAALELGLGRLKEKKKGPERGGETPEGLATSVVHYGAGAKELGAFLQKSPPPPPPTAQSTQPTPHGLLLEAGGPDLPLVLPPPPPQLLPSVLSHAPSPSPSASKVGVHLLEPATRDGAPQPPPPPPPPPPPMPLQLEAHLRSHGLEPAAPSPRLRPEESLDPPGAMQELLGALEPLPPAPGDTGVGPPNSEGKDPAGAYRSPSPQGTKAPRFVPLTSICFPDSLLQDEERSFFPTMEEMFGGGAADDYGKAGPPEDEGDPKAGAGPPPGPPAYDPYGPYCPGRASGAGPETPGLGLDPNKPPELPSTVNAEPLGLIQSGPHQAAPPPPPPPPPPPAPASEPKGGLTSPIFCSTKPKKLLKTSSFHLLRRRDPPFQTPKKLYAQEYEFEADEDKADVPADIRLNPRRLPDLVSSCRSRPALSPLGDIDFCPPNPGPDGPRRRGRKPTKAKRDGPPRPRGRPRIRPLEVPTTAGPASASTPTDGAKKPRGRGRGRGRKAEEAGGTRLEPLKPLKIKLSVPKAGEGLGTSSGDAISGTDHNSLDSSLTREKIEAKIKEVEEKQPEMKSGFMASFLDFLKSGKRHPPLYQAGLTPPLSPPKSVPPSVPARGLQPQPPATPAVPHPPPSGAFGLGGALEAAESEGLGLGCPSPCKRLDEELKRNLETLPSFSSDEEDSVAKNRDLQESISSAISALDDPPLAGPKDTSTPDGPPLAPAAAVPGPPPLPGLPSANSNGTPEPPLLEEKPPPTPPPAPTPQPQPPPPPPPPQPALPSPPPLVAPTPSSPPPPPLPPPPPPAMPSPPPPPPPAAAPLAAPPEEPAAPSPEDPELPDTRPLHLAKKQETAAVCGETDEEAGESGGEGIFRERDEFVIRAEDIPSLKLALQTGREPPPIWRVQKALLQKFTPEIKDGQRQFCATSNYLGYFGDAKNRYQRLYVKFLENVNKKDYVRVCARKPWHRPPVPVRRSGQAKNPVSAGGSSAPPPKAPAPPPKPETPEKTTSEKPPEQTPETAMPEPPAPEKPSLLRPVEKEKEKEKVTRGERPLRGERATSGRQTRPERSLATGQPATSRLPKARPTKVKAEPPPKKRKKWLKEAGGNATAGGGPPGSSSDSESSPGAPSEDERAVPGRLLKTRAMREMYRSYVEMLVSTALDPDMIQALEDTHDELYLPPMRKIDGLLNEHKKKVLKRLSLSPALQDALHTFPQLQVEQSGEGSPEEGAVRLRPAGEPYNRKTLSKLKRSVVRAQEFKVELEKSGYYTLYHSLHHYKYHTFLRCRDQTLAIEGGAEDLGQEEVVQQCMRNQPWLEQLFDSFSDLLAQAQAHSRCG
UniProt O75807, whole entry, looked up: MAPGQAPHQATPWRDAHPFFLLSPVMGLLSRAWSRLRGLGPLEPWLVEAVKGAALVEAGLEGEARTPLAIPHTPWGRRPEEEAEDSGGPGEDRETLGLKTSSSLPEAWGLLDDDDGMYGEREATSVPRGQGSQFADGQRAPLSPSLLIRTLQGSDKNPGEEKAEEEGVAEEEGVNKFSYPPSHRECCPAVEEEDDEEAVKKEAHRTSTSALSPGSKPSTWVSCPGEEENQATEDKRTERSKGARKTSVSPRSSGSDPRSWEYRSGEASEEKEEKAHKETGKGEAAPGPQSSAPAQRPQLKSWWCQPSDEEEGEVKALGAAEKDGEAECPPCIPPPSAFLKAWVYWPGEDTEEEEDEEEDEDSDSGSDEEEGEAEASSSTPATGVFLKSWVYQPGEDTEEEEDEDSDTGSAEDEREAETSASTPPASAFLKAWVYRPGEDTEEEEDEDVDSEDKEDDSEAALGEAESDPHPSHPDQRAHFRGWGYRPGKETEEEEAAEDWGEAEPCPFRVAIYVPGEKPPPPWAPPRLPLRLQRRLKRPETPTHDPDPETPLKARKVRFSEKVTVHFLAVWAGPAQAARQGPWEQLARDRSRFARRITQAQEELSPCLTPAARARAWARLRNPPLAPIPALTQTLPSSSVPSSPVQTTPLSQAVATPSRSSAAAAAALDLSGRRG
UniProt O43663: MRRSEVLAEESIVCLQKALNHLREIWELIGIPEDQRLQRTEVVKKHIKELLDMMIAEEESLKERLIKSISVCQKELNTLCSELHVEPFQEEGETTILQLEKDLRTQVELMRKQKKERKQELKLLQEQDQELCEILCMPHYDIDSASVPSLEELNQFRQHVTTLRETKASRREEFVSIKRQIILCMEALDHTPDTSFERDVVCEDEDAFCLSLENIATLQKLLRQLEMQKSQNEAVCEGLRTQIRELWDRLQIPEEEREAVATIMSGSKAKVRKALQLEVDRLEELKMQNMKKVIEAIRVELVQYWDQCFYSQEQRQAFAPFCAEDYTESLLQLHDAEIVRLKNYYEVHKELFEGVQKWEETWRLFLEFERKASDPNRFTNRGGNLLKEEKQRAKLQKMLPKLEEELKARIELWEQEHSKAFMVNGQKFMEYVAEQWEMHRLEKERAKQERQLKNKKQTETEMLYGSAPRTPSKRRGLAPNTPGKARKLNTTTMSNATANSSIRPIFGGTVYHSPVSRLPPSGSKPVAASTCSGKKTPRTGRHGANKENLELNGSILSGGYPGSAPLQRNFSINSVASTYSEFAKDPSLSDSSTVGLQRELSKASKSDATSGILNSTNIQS
UniProt Q16378: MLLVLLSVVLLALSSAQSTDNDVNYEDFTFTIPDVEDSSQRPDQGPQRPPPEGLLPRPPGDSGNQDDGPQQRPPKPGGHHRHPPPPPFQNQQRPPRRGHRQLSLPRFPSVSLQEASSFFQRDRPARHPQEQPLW
UniProt P79522: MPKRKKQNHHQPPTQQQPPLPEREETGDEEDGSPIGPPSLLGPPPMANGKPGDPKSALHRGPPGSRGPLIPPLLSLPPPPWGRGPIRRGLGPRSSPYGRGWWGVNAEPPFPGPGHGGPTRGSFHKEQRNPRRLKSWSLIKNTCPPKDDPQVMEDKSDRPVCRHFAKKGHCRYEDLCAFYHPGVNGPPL

Key:
Assay in all cases: log2 fold change, soluble protein after heating vs DMSO (PISA); higher = thermal stabilisation; K562 cells, 10 uM, 30 min; active = over 0.2 and 3.5 SD of the protein, either way, in both replicates (recomputed)
volasertib = compound: CC[C@@H]1C(=O)N(C)c2cnc(Nc3ccc(C(=O)N[C@H]4CC[C@H](N5CCN(CC6CC6)CC5)CC4)cc3OC)nc2N1C(C)C [volasertib]
How it was run: (§1)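 Values are thermal stability changes relative to control samples and are taken from duplicates. They are stated as log2 fold changes. Before quantification by TMTpro 16plex LC-MS/MS with equalised channel sums, K562 cells at 2×10^6 cells/mL were treated with 10 μM compound for 30 min, heated in aliquots for 3 min across 48°C-58°C, pooled, extracted in PBS with 0.5% NP-40 at 4°C, and centrifuged at 21,000xg for 90 min to give the soluble supernatant.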

sotrastaurin = compound: CN1CCN(c2nc(C3=C(c4c[nH]c5ccccc45)C(=O)NC3=O)c3ccccc3n2)CC1 [sotrastaurin]
How it was run: as §1

Tubastatin A = compound: CN1CCc2c(c3ccccc3n2Cc2ccc(C(=O)NO)cc2)C1 [Tubastatin A]
How it was run: as §1

[1] = compound: CCn1c(C(=O)N(C2CC2)C2CC2)cc2c3c(ncn3C)c(Nc3cc(C)n(C)n3)nc21
How it was run: as §1

[2] = compound: CCn1cc(-c2ccnc3[nH]c(-c4cccc(CN(C)C)c4)cc23)c(-c2ccc(NC(=O)N(C)C)cc2)n1
How it was run: as §1

[3] = compound: CN1CCC(CNc2ccc3ncc(-c4cccc(OC(F)(F)F)c4)n3n2)CC1
How it was run: as §1

[4] = compound: CNC(=O)C1=CC=CC=C1NC2=NC(=NC=C2Cl)NC3=C(C=C(C=C3)N4CCOCC4)OC
How it was run: as §1

[5] = compound: CC[C@H](C)N1C=C(C2=C(C=C(C=C21)C3=CN=C(C=C3)N4CCNCC4)C(=O)NCC5=C(C=C(NC5=O)C)C)C
How it was run: as §1

rosiglitazone = compound: CN(CCOC1=CC=C(C=C1)C[C@H]2C(=O)NC(=O)S2)C3=CC=CC=N3 (racemic) [rosiglitazone]
How it was run: as §1

[6] = compound: CN1C2=C(C3=C1C(=O)N(N=C3)CC4=CC(=CC=C4)N)SC(=C2)S(=O)C
How it was run: as §1

saracatinib = compound: CN1CCN(CCOc2cc(OC3CCOCC3)c3c(Nc4c(Cl)ccc5c4OCO5)ncnc3c2)CC1 [saracatinib]
How it was run: as §1

alvocidib = compound: CN1CC[C@H](c2c(O)cc(O)c3c(=O)cc(-c4ccccc4Cl)oc23)[C@H](O)C1 [alvocidib]
How it was run: as §1

[7] = compound: CNc1nc(-c2ccc3c(N)n[nH]c3c2)cc(N2C[C@@H](C(=O)NC3CCCCC3)CC[C@H]2C)n1
How it was run: as §1

epoxomicin = compound: CC[C@H](C)[C@@H](C(=O)N[C@@H]([C@@H](C)O)C(=O)N[C@@H](CC(C)C)C(=O)[C@]1(CO1)C)NC(=O)[C@H]([C@@H](C)CC)N(C)C(=O)C [epoxomicin]
How it was run: as §1

[8] = compound: CN(C)CC(=O)Nc1ccc2[nH]c(=O)c3ccccc3c2c1
How it was run: as §1

defactinib = compound: CNC(=O)c1ccc(Nc2ncc(C(F)(F)F)c(NCc3nccnc3N(C)S(C)(=O)=O)n2)cc1 [defactinib]
How it was run: as §1

[9] = compound: COC(=O)[C@H](CCSC)NC(=O)C1=C(C=C(C=C1)NC[C@H](CS)N)C2=CC=CC=C2
How it was run: as §1

[10] = compound: CC[C@@H]1C(=O)N(C)c2cnc(Nc3ccc(C(=O)NC4CCN(C)CC4)cc3OC)nc2N1C1CCCC1
How it was run: as §1

rucaparib = compound: CNCc1ccc(-c2[nH]c3cc(F)cc4c3c2CCNC4=O)cc1 [rucaparib]
How it was run: as §1

encorafenib = compound: COC(=O)N[C@@H](C)CNc1nccc(-c2cn(C(C)C)nc2-c2cc(Cl)cc(NS(C)(=O)=O)c2F)n1 [encorafenib]
How it was run: as §1

Measured: log2 fold change

PROSER1 (UniProt Q86XN7)
inactive: volasertib -0.072 | sotrastaurin -0.158 | Tubastatin A 0.231

PRR16 (UniProt Q569H4)
inactive: [1] 0 | [2] -0.14 | [3] -0.023 | [4] 0.062

PROSER3 (UniProt Q2NL68)
inactive: volasertib -0.108 | [5] -0.012 | [1] 0.011 | rosiglitazone -0.064 | [6] 0.222 | saracatinib 0.217 | alvocidib -0.318 | Tubastatin A 0.002 | [4] 0.024 | [7] -0.282

PPP1R3D (UniProt O95685)
inactive: [5] -0.038 | [1] 0.037 | [2] 0.312 | rosiglitazone 0.044 | [3] -0.161 | alvocidib 0.114 | Tubastatin A -0.143 | [4] -0.064

PRSS2 (UniProt P07478)
inactive: volasertib 0.004 | [5] 0.025 | epoxomicin 0.079 | [1] 0.113 | [8] -0.171 | rosiglitazone 0.062 | [6] 0.031 | saracatinib 0.062 | sotrastaurin 0.135 | alvocidib 0.133 | Tubastatin A -0.237 | [4] -0.244 | defactinib 0.057 | [7] -0.044 | [9] 0.15

PRIMPOL (UniProt Q96LW4)
inactive: volasertib -0.217 | [6] 0.032 | saracatinib -0.218 | sotrastaurin 0.059 | alvocidib -0.106 | Tubastatin A -0.096 | [7] -0.216

PRR12 (UniProt Q9ULL5)
inactive: [1] -0.039 | sotrastaurin -0.051 | [4] -0.777

PRKD2 (UniProt M0R346)
inactive: epoxomicin -0.072 | [2] -0.025 | [3] -0.14 | sotrastaurin -0.247

Random excerpt: two entries already listed.
PRSS2 (UniProt P07478)
inactive: volasertib 0.004 | [5] 0.025 | epoxomicin 0.079 | [1] 0.113 | [8] -0.171 | rosiglitazone 0.062 | [6] 0.031 | saracatinib 0.062 | sotrastaurin 0.135 | alvocidib 0.133 | Tubastatin A -0.237 | [4] -0.244 | defactinib 0.057 | [7] -0.044 | [9] 0.15

PRIMPOL (UniProt Q96LW4)
inactive: volasertib -0.217 | [6] 0.032 | saracatinib -0.218 | sotrastaurin 0.059 | alvocidib -0.106 | Tubastatin A -0.096 | [7] -0.216

The results go on.

PPP1R15A (UniProt O75807)
inactive: volasertib 0.134 | epoxomicin -0.027 | [1] 0.02 | sotrastaurin 0.093 | [4] 0.044

PRC1 (UniProt O43663)
inactive: sotrastaurin 0.017 | alvocidib -0.06 | Tubastatin A 0.104

PPP2R5C isoform 2 (UniProt Q13362)
inactive: [10] -0.209 | [4] -0.017 | rucaparib -0.063 | encorafenib 0.003

PPP1CC (UniProt F8W1A0)
inactive: [2] -0.054 | rosiglitazone -0.057 | [3] -0.238

PRR4 (UniProt Q16378)
inactive: [5] 0.484 | rosiglitazone 0.037

PRR3 (UniProt P79522)
inactive: epoxomicin -0.092 | [2] 0.253 | [3] 0.145 | sotrastaurin -0.087 | Tubastatin A 0.153
